Experimental data: PubChem BioAssay AID1979 (Broad Institute, 2009)
About 1,700 (0.57%) of roughly 300,000 compounds were called active. Only results without a clear call are listed here; the source files them as inconclusive.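 The calls were made as follows: active = growth inhibition above about 58% in most replicates (limit read from the data, passing the limit was not always enough); inconclusive = exactly half the replicates above a set limit; inactive = most replicates below a set limit.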

Assay: C. albicans growth inhibition with fluconazole, primary screen, CaCi-2 strain, Alamar Blue fluorescence (AID 1979);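 also: all wells also contain fluconazole at 8 µg/ml as a sub-toxic cotreatment; 0% = median of DMSO wells and 100% = median of geldanamycin control wells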
Conditions: C. albicans CaCi-2 (fluconazole-resistant clinical isolate) + fluconazole, 48 h, active compounds read high, concentration not given here

| SMILES | growth inhibition |
| --- | --- |
| Fc1ccccc1NC1CCN(Cc2ccccc2)CC1 | inconclusive: 32% |
